{
  "source": "patent US8853359B2",
  "about": "“Endokinin C/D-derived peptides” (University of Miyazaki, priority 2009, dated 2014)",
  "system": "substance P-induced scratching behavior",
  "test": "substance P-induced scratching behavior after intrathecal pre-administration of test peptide",
  "type": "in vivo, rat",
  "conditions": "10^-3M peptide intrathecal, 10^-3M SP",
  "procedure": "In Example 1, 10^−3M (10 nmol/10 μl) EKC/D or D-EKC/D (1), (2) or (3) was administered to intrathecally catheterized rats via catheters. After the predetermined time periods denoted on the horizontal axis in FIG. 1, the numbers of scratching events (scratching behavior) induced by intrathecal administration of 10^−3M (10 nmol/10 μl) substance P (hereafter, referred to as “SP”) were determined. Here, the expression “10^−3M (10 nmol/10 μl) EKC/D or D-EKC/D (1), (2), or (3) was administered” refers to a situation in which 10 μl in total of a solution (that is, 10^−3M solution) containing 10 nmol of EKC/D or D-EKC/D (1), (2), or (3) was all administered. […]\nMeanwhile, saline (10 μl) was intrathecally administered to intrathecally catheterized rats via catheters and then, after 30 minutes, 10^−3M SP (10 nmol/10 μl) was intrathecally administered to the rats. The number of the thus induced scratching events was determined to be the number of scratching events in the control group. […]\nThe vertical axis of the graph in FIG. 1 indicates changes in the numbers of scratching events (represented by relative values) due to administration of 10^−3M EKC/D or D-EKC/D (1), (2), or (3) when the number of scratching events (of untreated rats in a control group) induced by intrathecal administration of 10^−3M substance P was determined to be 100%. […]",
  "note": "Some entries share one result that the patent states for a list of compounds. Square brackets hold non-standard residues; d marks the D form. Ends that are not written are not given here.",
  "data": [
    {"substance": "AYQLEHTFQ[dW]LL-NH2 [D-EKC/D (3)]", "values": [
      {"measurement": "duration of suppressive effects on substance P-induced scratching behavior", "value": "≤ 24", "unit": "h"}
    ]},
    {"substance": "AYQLEHT[dW]QGLL-NH2 [D-EKC/D (2)]", "values": [
      {"measurement": "duration of suppressive effects on substance P-induced scratching behavior", "value": "≤ 24", "unit": "h"}
    ]}
  ]
}
